Experimental data published in PMC5691892.
Results are given in words; binding and its absence hold for the method and conditions named. In cells and extracts the contact can be indirect. For some assays here: Binding can be weak; no strength is given.

Key:
[1] = target: Mouse ICN1^ΔANK6-2531 (mouse); experiment: co-IP; ectopically expressed proteins in Jurkat cells (WT, CBLB knockdown clone sh1, or VAV1-/- cells expressing Vav1 proteins), 36 hr after electroporation; lysis in 10 mM Tris-HCl pH 8.0, 150 mM NaCl, 1% Triton X-100; 2 hr at 4°C with antibodies to Cbl-b or ICN1, Gammabind G-Sepharose; immunoblot
[2] = target: Mouse ICN1^ΔANK7-2531 (mouse); experiment: as above

B1: Mouse Vav1^WT (ectopically expressed) (protein, UniProt P27870 1-845)
chain: MELWRQCTHWLIQCRVLPPSHRVTWEGAQVCELAQALRDGVLLCQLLNNLLPQAINLREVNLRPQMSQFLCLKNIRTFLSTCCEKFGLKRSELFEAFDLFDVQDFGKVIYTLSALSWTPIAQNKGIMPFPTEDSALNDEDIYSGLSDQIDDTAEEDEDLYDCVENEEAEGDEIYEDLMRLESVPTPPKMTEYDKRCCCLREIQQTEEKYTDTLGSIQQHFMKPLQRFLKPQDMETIFVNIEELFSVHTHFLKELKDALAGPGATTLYQVFIKYKERFLVYGRYCSQVESASKHLDQVATAREDVQMKLEECSQRANNGRFTLRDLLMVPMQRVLKYHLLLQELVKHTQDATEKENLRLALDAMRDLAQCVNEVKRDNETLRQITNFQLSIENLDQSLANYGRPKIDGELKITSVERRSKTDRYAFLLDKALLICKRRGDSYDLKASVNLHSFQVRDDSSGERDNKKWSHMFLLIEDQGAQGYELFFKTRELKKKWMEQFEMAISNIYPENATANGHDFQMFSFEETTSCKACQMLLRGTFYQGYRCYRCRAPAHKECLGRVPPCGRHGQDFAGTMKKDKLHRRAQDKKRNELGLPKMEVFQEYYGIPPPPGAFGPFLRLNPGDIVELTKAEAEHNWWEGRNTATNEVGWFPCNRVHPYVHGPPQDLSVHLWYAGPMERAGAEGILTNRSDGTYLVRQRVKDTAEFAISIKYNVEVKHIKIMTSEGLYRITEKKAFRGLLELVEFYQQNSLKDCFKSLDTTLQFPYKEPERRAISKPPAGSTKYFGTAKARYDFCARDRSELSLKEGDIIKILNKKGQQGWWRGEIYGRIGWFPSNYVEEDYSEYC
B1 was tested, and the binding [1] was “no binding” and the binding [2] was “binds”.
